Results taken from patent US20260055171A1.
Results are given in words; binding and its absence hold for the method and conditions named. Some entries that bind do so weakly or less than the wild type.

Protein sequences, listed by entry. Tags and fused reporters are not part of them. Lines headed by an entry give the natural chain unless they say otherwise; changes in a name come on top. Chains listed by the source or under a name are the forms on record and can include a tag or linker. Residues count along the entry.
VEGF165-Biotin (P15692, form named): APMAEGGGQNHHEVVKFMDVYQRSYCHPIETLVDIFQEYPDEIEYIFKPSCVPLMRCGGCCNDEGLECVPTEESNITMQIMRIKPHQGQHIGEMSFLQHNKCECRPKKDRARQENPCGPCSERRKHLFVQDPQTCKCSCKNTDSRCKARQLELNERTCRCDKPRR
UniProt P12314, residues 16-288: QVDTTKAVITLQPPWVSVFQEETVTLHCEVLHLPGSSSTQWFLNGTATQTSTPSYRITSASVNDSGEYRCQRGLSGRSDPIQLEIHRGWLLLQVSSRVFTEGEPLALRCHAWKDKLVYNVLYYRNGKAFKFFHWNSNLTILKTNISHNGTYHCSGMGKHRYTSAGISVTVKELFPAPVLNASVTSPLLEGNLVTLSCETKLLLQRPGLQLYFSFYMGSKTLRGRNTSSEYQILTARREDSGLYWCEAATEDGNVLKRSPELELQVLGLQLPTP
UniProt P55899: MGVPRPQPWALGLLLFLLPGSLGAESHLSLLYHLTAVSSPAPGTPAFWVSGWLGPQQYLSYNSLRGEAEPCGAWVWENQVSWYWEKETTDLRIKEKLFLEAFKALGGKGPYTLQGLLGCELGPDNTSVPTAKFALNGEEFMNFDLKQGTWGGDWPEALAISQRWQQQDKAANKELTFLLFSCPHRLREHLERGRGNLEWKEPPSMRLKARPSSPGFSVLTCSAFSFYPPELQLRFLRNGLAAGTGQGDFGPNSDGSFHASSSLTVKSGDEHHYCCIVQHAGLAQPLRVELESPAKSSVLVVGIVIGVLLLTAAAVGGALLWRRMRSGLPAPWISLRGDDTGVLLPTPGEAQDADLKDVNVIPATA
UniProt P61769: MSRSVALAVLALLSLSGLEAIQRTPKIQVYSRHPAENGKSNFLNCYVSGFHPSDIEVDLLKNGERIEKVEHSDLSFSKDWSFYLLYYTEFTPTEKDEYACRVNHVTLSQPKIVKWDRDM

Tests used:
VEGF165-Biotin [1] = target: VEGF165-Biotin (UniProt P15692); assay: binding kinetics on VEGF165-Biotin, instrument not named
hCD64-Biotin (human) [2] = target: hCD64-Biotin (human) (UniProt P12314); assay: binding kinetics on biotinylated Fc receptor, instrument not named
hFcRn-β2M-Biotin (human) [3] = target: T1, hFcRn-β2M-Biotin (human) (UniProt P55899+P61769); assay: as above
hCD64-Biotin (human) [4] = target: hCD64-Biotin (human) (UniProt P12314); assay: binding kinetics on hCD64-Biotin, signal (nm) against time (sec); construct diluted 1:5 from 50 nM, concentrations not labelled on the sheet; platform not named
VEGF165-Biotin [5] = target: VEGF165-Biotin (UniProt P15692); assay: binding kinetics on VEGF165-Biotin, signal (nm) against time (sec); construct diluted 1:5 from 10 nM, concentrations not labelled on the sheet; platform not named
hFcRn-β2M-Biotin (human) [6] = target: T1, hFcRn-β2M-Biotin (human); assay: binding kinetics on hFcRn-β2M-Biotin, signal (nm) against time (sec); construct diluted 1:5 from 200 nM, concentrations not labelled on the sheet; platform not named
VEGF165-Biotin [7] = target: VEGF165-Biotin (UniProt P15692); assay: binding kinetics on VEGF165-Biotin, instrument not named; only 10 nM tested
VEGF165-Biotin [8] = target: VEGF165-Biotin (UniProt P15692); assay: binding kinetics on VEGF165-Biotin, signal (nm) against time (sec); construct tested only at the highest concentration, 10 nM, not labelled on the sheet; platform not named

Measured: binding

B1: Hex-REGN3 (IgG1) Mut1 LALAPG (Fc fusion)
chain: SDTGRPFVEMYSEIPEIIHMTEGRELVIPCRVTSPNITVTLKKFPLDTLIPDGKRIIWDSRKGFIISNATYKEIGLLTCEATVNGHLYKTNYLTHRQTNTIIDVVLSPSHGIELSVGEKLVLNCTARTELNVGIDFNWEYPSSKHQHKKLVNRDLKTQSGSEMKKFLSTLTIDGVTRSDQGLYTCAASSGLMTKKNSTFVRVHEKDKTHTCPPCPAPEAAGGPSVFLFPPKPKDTLMISRTPEVTCVVVDVSHEDPEVKFNWYVDGVEVHNAKTKPREEQYNSTYRVVSVLTVCHQDWLNGKEYKCKVSNKALGAPIEKTISKAKGQPREPQVYTLPPSREEMTKNQVSLTCLVKGFYPSDIAVEWESNGQPENNYKTTPPVLDSDGSFFLYSKLTVDKSRWQQGNVFSCSVMHEALHNHYTQKSLDKSTGKPTLYNVSLIMSDTGGTCY
binds: VEGF165-Biotin [1] | hCD64-Biotin (human) [2] | hFcRn-β2M-Biotin (human) [3] | hCD64-Biotin (human) [4] | VEGF165-Biotin [5] | hFcRn-β2M-Biotin (human) [6]

B2: Hex-REGN3 (IgG1) Mut1-V2 PVA/P329A (Fc fusion)
chain: SDTGRPFVEMYSEIPEIIHMTEGRELVIPCRVTSPNITVTLKKFPLDTLIPDGKRIIWDSRKGFIISNATYKEIGLLTCEATVNGHLYKTNYLTHRQTNTIIDVVLSPSHGIELSVGEKLVLNCTARTELNVGIDFNWEYPSSKHQHKKLVNRDLKTQSGSEMKKFLSTLTIDGVTRSDQGLYTCAASSGLMTKKNSTFVRVHEKDKTHTCPPCPAPPVAGPSVFLFPPKPKDTLMISRTPEVTCVVVDVSHEDPEVKFNWYVDGVEVHNAKTKPREEQYNSTYRVVSVLTVCHQDWLNGKEYKCKVSNKALAAPIEKTISKAKGQPREPQVYTLPPSREEMTKNQVSLTCLVKGFYPSDIAVEWESNGQPENNYKTTPPVLDSDGSFFLYSKLTVDKSRWQQGNVFSCSVMHEALHNHYTQKSLDKSTGKPTLYNVSLVMSDTAGTCY
binds: VEGF165-Biotin [7] | VEGF165-Biotin [8]
